Results are given in words; binding and its absence hold for the method and conditions named. In cells and extracts the contact can be indirect. Binding can be weak; no strength is given. Sequences can lack the tags named with a protein.
Molecular target: cytoplasmic part of ETR1 (ETR1 without transmembrane domain, ΔTM-ETR1) with C-terminal GFP (Arabidopsis thaliana)
Assay: FRET or BRET

| binding | Binder |
| --- | --- |
| binds | full length AHK5 tagged N-terminally with mRFP1 (protein, UniProt Q3S4A7 1-922) MVCEMETDQIEEMDVEVLSSMWPEDVGTEADKQFNVEKPAGDLDTLKEVTIETRTIADMTRLPNLLNSTHQGSSQLTNLVKQWEYMQDNAVRLLKEELKNLDRQREEAEAKELKIIEEYKFESNEPENVPVLDETSDLFRRFRQKKRDALVDSKKIEIYEEFDTVAYWKQKALSLEKMLEASTERERRLMEKLSESLKTMESQSAPVQELTQNLKRAEGFLHFILQNAPIVMGHQDKDLRYLFIYNKYPSLREQDILGKTDVEIFHGGGVKESEDFKREVLEKGKASKREITFTTDLFGSKTFLIYVEPVYNKAGEKIGINYMGMEVTDQVVKREKMAKLREDNAVRKAMESELNKTIHITEETMRAKQMLATMSHEIRSPLSGVVGMAEILSTTKLDKEQRQLLNVMISSGDLVLQLINDILDLSKVESGVMRLEATKFRPREVVKHVLQTAAASLKKSLTLEGNIADDVPIEVVGDVLRIRQILTNLISNAIKFTHEGNVGIKLQVISEPSFVRDNALNADTEEHEQNGLTETSVWICCDVWDTGIGIPENALPCLFKKYMQASADHARKYGGTGLGLAICKQLVELMGGQLTVTSRVSEGSTFTFILPYKVGRSDDYSDDQDEFSDMADQQSEPDDTAEGYFQFKPLLGSIYSNGGPGISNDFLPHKVMLTSPIKLINGFVADPSNNTGQSEMLQLENGGYMDESKLETSSGHCPESAHQYENGNGRCFSKESESCSSSQASSEGGTLEMESELTVSSHREEEKAETEVKETSKPKILLVEDNKINIMVAKSMMKQLGHTMDIANNGVEAITAINSSSYDLVLMDVCMPVLDGLKATRLIRSYEETGNWNAAIEAGVDISTSENEQVCMRPTNRLPIIAMTANTLAESSEECYANGMDSFISKPVTLQKLRECLQQYLH |
| binds | full length AHK5 tagged C-terminally with mRFP1 (protein, UniProt Q3S4A7 1-922) MVCEMETDQIEEMDVEVLSSMWPEDVGTEADKQFNVEKPAGDLDTLKEVTIETRTIADMTRLPNLLNSTHQGSSQLTNLVKQWEYMQDNAVRLLKEELKNLDRQREEAEAKELKIIEEYKFESNEPENVPVLDETSDLFRRFRQKKRDALVDSKKIEIYEEFDTVAYWKQKALSLEKMLEASTERERRLMEKLSESLKTMESQSAPVQELTQNLKRAEGFLHFILQNAPIVMGHQDKDLRYLFIYNKYPSLREQDILGKTDVEIFHGGGVKESEDFKREVLEKGKASKREITFTTDLFGSKTFLIYVEPVYNKAGEKIGINYMGMEVTDQVVKREKMAKLREDNAVRKAMESELNKTIHITEETMRAKQMLATMSHEIRSPLSGVVGMAEILSTTKLDKEQRQLLNVMISSGDLVLQLINDILDLSKVESGVMRLEATKFRPREVVKHVLQTAAASLKKSLTLEGNIADDVPIEVVGDVLRIRQILTNLISNAIKFTHEGNVGIKLQVISEPSFVRDNALNADTEEHEQNGLTETSVWICCDVWDTGIGIPENALPCLFKKYMQASADHARKYGGTGLGLAICKQLVELMGGQLTVTSRVSEGSTFTFILPYKVGRSDDYSDDQDEFSDMADQQSEPDDTAEGYFQFKPLLGSIYSNGGPGISNDFLPHKVMLTSPIKLINGFVADPSNNTGQSEMLQLENGGYMDESKLETSSGHCPESAHQYENGNGRCFSKESESCSSSQASSEGGTLEMESELTVSSHREEEKAETEVKETSKPKILLVEDNKINIMVAKSMMKQLGHTMDIANNGVEAITAINSSSYDLVLMDVCMPVLDGLKATRLIRSYEETGNWNAAIEAGVDISTSENEQVCMRPTNRLPIIAMTANTLAESSEECYANGMDSFISKPVTLQKLRECLQQYLH |
